The list shows a part of the results.
Tests used:
Experiment in all cases: log2 fold change, soluble protein after heating vs DMSO (PISA); higher = thermal stabilisation; K562 cells, 10 uM, 30 min; active = over 0.2 and 3.5 SD of the protein, either way, in both replicates (recomputed)
bafetinib = compound: Cc1ccc(NC(=O)c2ccc(CN3CC[C@H](N(C)C)C3)c(C(F)(F)F)c2)cc1Nc1nccc(-c2cncnc2)n1 [bafetinib]
Outline: (§1)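 K562 cells at 2×10^6 cells/mL were given 10 μM compound for 30 min. Aliquots then went through 3 min of heating across 48°C-58°C, were pooled, and were extracted in PBS with 0.5% NP-40 at 4°C, and the supernatant after 21,000xg for 90 min was quantified by TMTpro 16plex LC-MS/MS with channel sums equalised. Thermal stability relative to control samples, from duplicates, is given as log2 fold change.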

By UniProt entry, the sequences of proteins in these tests, tags left out. Where a name states a change or a piece, a line headed by the entry shows the natural chain unless it says otherwise.
UniProt O43439: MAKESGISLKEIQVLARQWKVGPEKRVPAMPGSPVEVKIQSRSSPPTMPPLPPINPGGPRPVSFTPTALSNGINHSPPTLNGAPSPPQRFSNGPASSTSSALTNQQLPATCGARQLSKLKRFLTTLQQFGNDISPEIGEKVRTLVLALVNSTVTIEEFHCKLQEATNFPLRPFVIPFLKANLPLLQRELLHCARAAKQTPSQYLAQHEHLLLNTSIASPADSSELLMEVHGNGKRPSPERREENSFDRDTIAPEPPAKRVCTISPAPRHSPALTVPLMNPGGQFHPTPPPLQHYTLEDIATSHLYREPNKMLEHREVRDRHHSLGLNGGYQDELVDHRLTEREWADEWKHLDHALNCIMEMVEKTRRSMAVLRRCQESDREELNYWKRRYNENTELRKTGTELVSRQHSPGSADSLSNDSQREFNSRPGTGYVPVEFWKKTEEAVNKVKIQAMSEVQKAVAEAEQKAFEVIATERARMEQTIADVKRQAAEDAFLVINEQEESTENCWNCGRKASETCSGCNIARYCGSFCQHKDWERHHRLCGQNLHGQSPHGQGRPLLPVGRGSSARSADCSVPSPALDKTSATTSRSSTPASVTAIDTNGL
UniProt P24864, whole entry, looked up: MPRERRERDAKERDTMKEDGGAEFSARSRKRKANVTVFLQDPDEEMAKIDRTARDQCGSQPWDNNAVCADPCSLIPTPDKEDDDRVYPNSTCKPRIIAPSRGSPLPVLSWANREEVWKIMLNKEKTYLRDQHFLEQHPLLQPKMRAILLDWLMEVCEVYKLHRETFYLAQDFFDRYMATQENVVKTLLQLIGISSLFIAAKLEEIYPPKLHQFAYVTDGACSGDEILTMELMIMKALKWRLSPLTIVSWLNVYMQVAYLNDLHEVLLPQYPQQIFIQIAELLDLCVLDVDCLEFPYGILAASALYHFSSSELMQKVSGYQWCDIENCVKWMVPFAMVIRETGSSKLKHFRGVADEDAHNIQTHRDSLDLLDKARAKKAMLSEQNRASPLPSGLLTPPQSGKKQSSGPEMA
UniProt Q12834, whole entry, looked up: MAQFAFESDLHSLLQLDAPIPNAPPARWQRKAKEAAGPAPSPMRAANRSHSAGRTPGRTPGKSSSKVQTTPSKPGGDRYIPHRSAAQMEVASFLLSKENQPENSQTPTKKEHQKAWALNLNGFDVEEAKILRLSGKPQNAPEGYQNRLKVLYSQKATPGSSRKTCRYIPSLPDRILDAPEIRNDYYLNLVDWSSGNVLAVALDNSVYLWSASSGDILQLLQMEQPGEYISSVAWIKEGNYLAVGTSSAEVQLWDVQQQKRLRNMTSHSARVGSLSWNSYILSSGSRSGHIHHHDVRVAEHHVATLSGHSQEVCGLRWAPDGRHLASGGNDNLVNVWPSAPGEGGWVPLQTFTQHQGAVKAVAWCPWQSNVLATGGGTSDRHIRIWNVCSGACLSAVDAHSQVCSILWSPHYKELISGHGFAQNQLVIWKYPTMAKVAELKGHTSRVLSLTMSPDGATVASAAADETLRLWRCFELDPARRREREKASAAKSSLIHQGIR
UniProt P30281: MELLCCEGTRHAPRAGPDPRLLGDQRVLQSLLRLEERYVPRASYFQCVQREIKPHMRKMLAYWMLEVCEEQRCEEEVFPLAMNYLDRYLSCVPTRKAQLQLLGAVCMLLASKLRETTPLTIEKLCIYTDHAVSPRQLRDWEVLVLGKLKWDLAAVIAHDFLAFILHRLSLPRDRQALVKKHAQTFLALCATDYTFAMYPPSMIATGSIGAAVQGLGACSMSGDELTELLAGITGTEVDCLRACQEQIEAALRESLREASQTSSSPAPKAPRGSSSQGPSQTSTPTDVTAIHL
UniProt Q8N350: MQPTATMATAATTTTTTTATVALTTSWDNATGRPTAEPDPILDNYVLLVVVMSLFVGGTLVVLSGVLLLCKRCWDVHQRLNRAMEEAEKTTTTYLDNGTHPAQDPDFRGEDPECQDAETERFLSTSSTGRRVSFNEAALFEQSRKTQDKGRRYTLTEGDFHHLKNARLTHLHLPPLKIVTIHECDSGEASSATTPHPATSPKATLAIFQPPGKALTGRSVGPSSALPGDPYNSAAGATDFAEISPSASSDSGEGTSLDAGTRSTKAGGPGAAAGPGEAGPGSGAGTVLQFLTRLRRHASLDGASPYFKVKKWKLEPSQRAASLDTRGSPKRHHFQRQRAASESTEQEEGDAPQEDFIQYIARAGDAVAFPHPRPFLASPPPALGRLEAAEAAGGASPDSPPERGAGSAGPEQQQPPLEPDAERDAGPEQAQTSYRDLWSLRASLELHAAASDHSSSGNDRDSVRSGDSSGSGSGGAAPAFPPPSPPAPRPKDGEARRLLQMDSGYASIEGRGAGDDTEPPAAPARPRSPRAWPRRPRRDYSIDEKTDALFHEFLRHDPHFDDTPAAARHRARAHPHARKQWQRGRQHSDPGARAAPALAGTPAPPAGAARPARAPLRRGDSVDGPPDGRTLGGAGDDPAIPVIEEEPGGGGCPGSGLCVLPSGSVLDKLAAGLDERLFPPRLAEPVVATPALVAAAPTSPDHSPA

[1] = compound: Cc1cccc(CC(=O)N2CCc3c2ccc(-c2cn(C)c4ncnc(N)c24)c3F)n1
Outline: as §1

vorinostat = compound: O=C(CCCCCCC(=O)Nc1ccccc1)NO [vorinostat]
Outline: as §1

nilotinib = compound: Cc1cn(-c2cc(NC(=O)c3ccc(C)c(Nc4nccc(-c5cccnc5)n4)c3)cc(C(F)(F)F)c2)cn1 [nilotinib]
Outline: as §1

[2] = compound: Cc1nc(Nc2n[nH]c3c2CN(C(=O)N[C@H](CN(C)C)c2ccccc2)C3(C)C)c2sccc2n1
Outline: as §1

dasatinib = compound: Cc1nc(Nc2ncc(C(=O)Nc3c(C)cccc3Cl)s2)cc(N2CCN(CCO)CC2)n1 [dasatinib]
Outline: as §1

[3] = compound: Cc1ncc(-c2ccnc(Nc3ccc(S(C)(=O)=O)cc3)n2)n1C(C)C
Outline: as §1

[4] = compound: Cn1cc(-c2ccc3c(c2)CCN3C(=O)Cc2cccc(C(F)(F)F)c2)c2c(N)ncnc21
Outline: as §1

[5] = compound: Cn1cc(-c2ccc3nnc(C(F)(F)c4ccc5ncccc5c4)n3n2)cn1
Outline: as §1

tipifarnib = compound: Cn1cncc1[C@@](N)(c1ccc(Cl)cc1)c1ccc2c(c1)c(-c1cccc(Cl)c1)cc(=O)n2C [tipifarnib]
Outline: as §1

[6] = compound: NC(=O)Nc1cc(-c2cccc(F)c2)sc1C(=O)N[C@H]1CCCNC1
Outline: as §1

[7] = compound: NC(=O)c1cnc(N[C@@H]2CCCC[C@@H]2N)nc1Nc1cccc(-n2nccn2)c1
Outline: as §1

[8] = compound: NCC(=O)Nc1ccc(-n2nc(C(F)(F)F)cc2-c2ccc3c(ccc4ccccc43)c2)cc1
Outline: as §1

entinostat = compound: Nc1ccccc1NC(=O)c1ccc(CNC(=O)OCc2cccnc2)cc1 [entinostat]
Outline: as §1

citarinostat = compound: O=C(CCCCCCNC(=O)c1cnc(N(c2ccccc2)c2ccccc2Cl)nc1)NO [citarinostat]
Outline: as §1

[9] = compound: O=C1NC(=O)C(c2cnc3ccccn23)=C1c1cn2c3c(cc(F)cc13)CN(C(=O)N1CCCCC1)CC2
Outline: as §1

[10] = compound: c1cc(OCCN2CCCCC2)cc(-c2n[nH]c3ccc(-c4nnc[nH]4)cc23)c1
Outline: as §1

mubritinib = compound: FC(F)(F)c1ccc(/C=C/c2nc(COc3ccc(CCCCn4ccnn4)cc3)co2)cc1 [mubritinib]
Outline: as §1

[11] = compound: NC1(c2ccc(-c3nc4ccn5c(=O)[nH]nc5c4cc3-c3ccccc3)cc2)CCC1
Outline: as §1

silmitasertib = compound: O=C(O)c1ccc2c(c1)nc(Nc1cccc(Cl)c1)c1ccncc12 [silmitasertib]
Outline: as §1

Measured: log2 fold change

CBFA2T2 isoform 4 (UniProt O43439)
inactive: bafetinib 0.142 | [1] -0.041 | vorinostat 0.028

CDC37 (UniProt K7EL68)
inactive: bafetinib -0.068 | nilotinib 0.042 | [2] -0.102 | dasatinib -0.063 | [3] 0.15 | [4] -0.026 | [5] 0.098 | tipifarnib -0.043 | [6] -0.062 | [7] -0.048 | [8] 0 | entinostat -0.02 | citarinostat -0.153 | [9] -0.025 | [10] -0.165

CCNE1 (UniProt P24864)
inactive: bafetinib 0.045 | [1] 0.212 | dasatinib -0.173 | [5] -0.009 | tipifarnib 0.049 | [7] -0.057 | [8] -0.048 | vorinostat 0.055 | [9] -0.051

CDC20 (UniProt Q12834)
inactive: bafetinib 0.005 | [1] 0.015 | dasatinib -0.09 | [4] 0.059 | [5] -0.143 | tipifarnib -0.015 | mubritinib 0.066 | [6] 0.035 | [7] -0.044 | [11] -0.035 | [8] -0.089 | entinostat -0.037 | vorinostat -0.014 | silmitasertib -0.107 | [9] -0.039

CCND3 (UniProt P30281)
inactive: bafetinib 0.07 | [1] -0.016 | dasatinib -0.08 | [4] 0.04 | [5] 0.092 | tipifarnib 0.026 | mubritinib 0.024 | [7] -0.204 | [11] -0.001 | [8] 0.184 | vorinostat 0.048 | citarinostat 0 | silmitasertib 0.28 | [9] 0.069 | [10] 0.183

CBARP (UniProt Q8N350)
inactive: bafetinib -0.21 | [1] -0.143 | nilotinib 0.132 | [2] -0.086 | dasatinib 0.15 | [3] 0.042 | [4] -0.228 | [5] 0.013 | [6] -0.109 | [7] -0.049 | [8] 0.021 | entinostat 0.144 | vorinostat -0.046 | citarinostat 0.044 | [9] -0.028 | [10] 0.047
